Paper PMC4712141
These are yes or no findings as the source states them, for the method shown. In cells and extracts the contact can be indirect. A result given as binding can be weak or reduced; the word gives no strength. Tags and fused reporters may be left off the sequences shown.

T1: endogenous P. berghei eIF2α-P (P. berghei (endogenous in blood stage parasites))
T1 sequence (chain, phosphorylated (eIF2α-P; precipitated and detected with anti-eIF2α-P); serine 59): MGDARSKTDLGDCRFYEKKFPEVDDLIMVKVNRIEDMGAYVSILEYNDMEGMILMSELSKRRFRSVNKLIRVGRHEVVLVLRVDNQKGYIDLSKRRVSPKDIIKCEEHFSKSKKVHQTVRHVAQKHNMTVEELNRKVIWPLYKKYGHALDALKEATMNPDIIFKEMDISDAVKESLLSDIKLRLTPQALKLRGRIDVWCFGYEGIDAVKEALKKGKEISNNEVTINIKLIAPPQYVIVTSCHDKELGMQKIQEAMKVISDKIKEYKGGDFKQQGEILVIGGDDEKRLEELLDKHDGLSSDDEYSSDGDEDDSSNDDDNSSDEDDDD

T2: endogenous P. berghei UIS2 (P. berghei (endogenous in blood stage parasites))
T2 sequence: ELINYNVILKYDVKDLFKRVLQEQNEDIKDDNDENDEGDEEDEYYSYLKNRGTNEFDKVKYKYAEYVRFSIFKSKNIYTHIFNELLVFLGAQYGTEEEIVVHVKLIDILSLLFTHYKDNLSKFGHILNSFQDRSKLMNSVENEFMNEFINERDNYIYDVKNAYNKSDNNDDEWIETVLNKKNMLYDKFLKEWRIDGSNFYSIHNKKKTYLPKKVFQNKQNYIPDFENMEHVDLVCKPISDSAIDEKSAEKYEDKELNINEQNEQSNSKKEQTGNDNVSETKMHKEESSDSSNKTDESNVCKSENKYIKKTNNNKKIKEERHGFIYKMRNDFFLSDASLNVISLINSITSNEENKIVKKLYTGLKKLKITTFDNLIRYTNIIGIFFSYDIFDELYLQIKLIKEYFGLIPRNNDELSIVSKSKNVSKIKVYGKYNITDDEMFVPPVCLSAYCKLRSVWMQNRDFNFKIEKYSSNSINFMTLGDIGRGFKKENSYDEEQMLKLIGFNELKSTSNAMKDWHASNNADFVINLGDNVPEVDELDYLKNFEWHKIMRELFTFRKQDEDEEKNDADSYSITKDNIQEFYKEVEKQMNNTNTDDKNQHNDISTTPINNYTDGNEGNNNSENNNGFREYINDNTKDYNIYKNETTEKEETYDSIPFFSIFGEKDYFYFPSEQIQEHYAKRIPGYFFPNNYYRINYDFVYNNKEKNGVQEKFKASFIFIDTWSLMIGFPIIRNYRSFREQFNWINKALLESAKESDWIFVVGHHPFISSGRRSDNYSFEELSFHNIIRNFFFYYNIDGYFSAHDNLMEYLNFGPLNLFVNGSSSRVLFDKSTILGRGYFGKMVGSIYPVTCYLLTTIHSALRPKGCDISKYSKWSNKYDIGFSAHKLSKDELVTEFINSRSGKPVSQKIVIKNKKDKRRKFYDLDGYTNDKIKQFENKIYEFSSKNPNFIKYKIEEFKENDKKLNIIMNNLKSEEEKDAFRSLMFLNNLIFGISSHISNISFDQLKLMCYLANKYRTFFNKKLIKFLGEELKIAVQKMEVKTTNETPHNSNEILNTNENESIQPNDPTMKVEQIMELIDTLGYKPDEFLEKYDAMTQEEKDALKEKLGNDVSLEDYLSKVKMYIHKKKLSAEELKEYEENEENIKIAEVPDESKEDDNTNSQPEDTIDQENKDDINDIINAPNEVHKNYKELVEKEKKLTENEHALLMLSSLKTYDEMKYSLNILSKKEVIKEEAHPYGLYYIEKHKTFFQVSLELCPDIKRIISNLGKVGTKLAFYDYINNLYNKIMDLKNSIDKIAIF


Columns and labels:
[1] = biological target: T1, endogenous P. berghei eIF2α-P (P. berghei (endogenous in blood stage parasites)); experiment: co-IP; whole cell extracts of P. berghei blood stage parasites, immunoprecipitation with anti-eIF2α-P or anti-UIS2 antibodies, immunoblot; endogenous proteins
[2] = biological target: T2, endogenous P. berghei UIS2 (P. berghei (endogenous in blood stage parasites)); experiment: as above

Binder | binding [1] | binding [2]
endogenous P. berghei UIS2 (enzyme, UniProt A0A509AQ20 23-1322) ELINYNVILKYDVKDLFKRVLQEQNEDIKDDNDENDEGDEEDEYYSYLKNRGTNEFDKVKYKYAEYVRFSIFKSKNIYTHIFNELLVFLGAQYGTEEEIVVHVKLIDILSLLFTHYKDNLSKFGHILNSFQDRSKLMNSVENEFMNEFINERDNYIYDVKNAYNKSDNNDDEWIETVLNKKNMLYDKFLKEWRIDGSNFYSIHNKKKTYLPKKVFQNKQNYIPDFENMEHVDLVCKPISDSAIDEKSAEKYEDKELNINEQNEQSNSKKEQTGNDNVSETKMHKEESSDSSNKTDESNVCKSENKYIKKTNNNKKIKEERHGFIYKMRNDFFLSDASLNVISLINSITSNEENKIVKKLYTGLKKLKITTFDNLIRYTNIIGIFFSYDIFDELYLQIKLIKEYFGLIPRNNDELSIVSKSKNVSKIKVYGKYNITDDEMFVPPVCLSAYCKLRSVWMQNRDFNFKIEKYSSNSINFMTLGDIGRGFKKENSYDEEQMLKLIGFNELKSTSNAMKDWHASNNADFVINLGDNVPEVDELDYLKNFEWHKIMRELFTFRKQDEDEEKNDADSYSITKDNIQEFYKEVEKQMNNTNTDDKNQHNDISTTPINNYTDGNEGNNNSENNNGFREYINDNTKDYNIYKNETTEKEETYDSIPFFSIFGEKDYFYFPSEQIQEHYAKRIPGYFFPNNYYRINYDFVYNNKEKNGVQEKFKASFIFIDTWSLMIGFPIIRNYRSFREQFNWINKALLESAKESDWIFVVGHHPFISSGRRSDNYSFEELSFHNIIRNFFFYYNIDGYFSAHDNLMEYLNFGPLNLFVNGSSSRVLFDKSTILGRGYFGKMVGSIYPVTCYLLTTIHSALRPKGCDISKYSKWSNKYDIGFSAHKLSKDELVTEFINSRSGKPVSQKIVIKNKKDKRRKFYDLDGYTNDKIKQFENKIYEFSSKNPNFIKYKIEEFKENDKKLNIIMNNLKSEEEKDAFRSLMFLNNLIFGISSHISNISFDQLKLMCYLANKYRTFFNKKLIKFLGEELKIAVQKMEVKTTNETPHNSNEILNTNENESIQPNDPTMKVEQIMELIDTLGYKPDEFLEKYDAMTQEEKDALKEKLGNDVSLEDYLSKVKMYIHKKKLSAEELKEYEENEENIKIAEVPDESKEDDNTNSQPEDTIDQENKDDINDIINAPNEVHKNYKELVEKEKKLTENEHALLMLSSLKTYDEMKYSLNILSKKEVIKEEAHPYGLYYIEKHKTFFQVSLELCPDIKRIISNLGKVGTKLAFYDYINNLYNKIMDLKNSIDKIAIF | binds | –
endogenous P. berghei eIF2α-P (protein, UniProt A0A509AJP9 1-326, phosphorylated (eIF2α-P; precipitated and detected with anti-eIF2α-P); serine 59) MGDARSKTDLGDCRFYEKKFPEVDDLIMVKVNRIEDMGAYVSILEYNDMEGMILMSELSKRRFRSVNKLIRVGRHEVVLVLRVDNQKGYIDLSKRRVSPKDIIKCEEHFSKSKKVHQTVRHVAQKHNMTVEELNRKVIWPLYKKYGHALDALKEATMNPDIIFKEMDISDAVKESLLSDIKLRLTPQALKLRGRIDVWCFGYEGIDAVKEALKKGKEISNNEVTINIKLIAPPQYVIVTSCHDKELGMQKIQEAMKVISDKIKEYKGGDFKQQGEILVIGGDDEKRLEELLDKHDGLSSDDEYSSDGDEDDSSNDDDNSSDEDDDD | – | binds
